Measured values reported in patent publication US12383502B2, “Cold-water-dispersible chemical delivery system” (PHARMAKO BIOTECHNOLOGIES PTY LIMITED, priority 2017, dated 2025).
Some results were stated once for a whole list of compounds, not compound by compound.

Assay: PEA pharmacokinetics, single 300 mg dose
Assay type: in vivo, human
Conditions: single oral 300 mg
Method: A single equivalent dose, randomised, double blinded study was used to evaluate the pharmacokinetics of 2 different PEA formulations administered in single 300 mg doses (standard PEA and Lipisperse PEA from Batch#MT20170615_01 described in Example 7). All trial participants, investigators conducting the trial and the biochemist analysing the samples were blinded to who was on each product.
Subjects were healthy adult male (n=10) and female (n=8; non-pregnant and non-lactating) volunteers between the ages of 18-30 years. All participants were advised to fast from 10:[…] the night prior to the study commencing until the collection of the first blood sample. Breakfast and lunch were provided to the participants at the centre. This is a standard feeding study with nutritionally balanced meals and snacks provided during the 0-6 hour sample collection. Subjects remained on site for the full 6 hours of sample collection. Only participants who provided at least 9 of the 11 samples collected between 0-24 hours had their data analysed.
For PEA pharmacokinetic analysis, blood samples (3mL collected into ethylenediaminetetraacetic acid (EDTA) containing tubes) were drawn prior to supplementation (hour 0) and at 30, 45, 60, 90, 120, 180, 240, 300, 360 minutes and 24 hours post supplementation. […]

Q: With `CCCCCCCCCCCCCCCC(=O)NCCO` [Standard PEA, Palmitoylethanolamide] as the compound, how does the “time of return of plasma PEA to baseline post supplementation” value read?
A: ≤ 60 min
